Source: publication PMC7862700
The entries are a selection whose mix differs from that of the whole data set. For part of these data: At the low end of the ranking the order means little. Some of the results follow. For part of these data: The exact form of the protein is not confirmed.

Protein sequences, listed by entry. Tags and fused reporters are not part of them. Lines headed by an entry give the natural chain unless they say otherwise; changes in a name come on top.
UniProt Q00613: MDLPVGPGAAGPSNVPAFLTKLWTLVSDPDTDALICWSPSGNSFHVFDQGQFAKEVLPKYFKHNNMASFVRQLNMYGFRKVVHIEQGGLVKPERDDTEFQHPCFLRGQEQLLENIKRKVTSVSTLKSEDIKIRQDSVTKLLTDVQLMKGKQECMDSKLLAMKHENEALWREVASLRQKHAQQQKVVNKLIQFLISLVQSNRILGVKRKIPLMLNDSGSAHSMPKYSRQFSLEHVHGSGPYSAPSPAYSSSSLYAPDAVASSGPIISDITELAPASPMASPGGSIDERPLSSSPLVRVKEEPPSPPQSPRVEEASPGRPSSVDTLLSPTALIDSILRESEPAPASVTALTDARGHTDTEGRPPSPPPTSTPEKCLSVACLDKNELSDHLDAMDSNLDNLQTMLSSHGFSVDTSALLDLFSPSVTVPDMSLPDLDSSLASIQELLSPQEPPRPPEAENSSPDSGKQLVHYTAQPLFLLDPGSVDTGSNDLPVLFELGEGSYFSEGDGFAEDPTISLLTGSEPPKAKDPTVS

Legend:
HSF1 = HSF1 (UniProt Q00613); assay: DAPPL (digital affinity profiling via proximity ligation, sequencing); conditions: 10 mM Tris-HCl pH 7.5, 50 mM NaCl, 1 mM DTT, 4% glycerol, room temperature, 30 min; GST-TFs on glutathione beads, 16-mer random dsDNA library, 0.1% …; high values mean tight binding; double strand, one strand shown; scale: fold enrichment (6-mer frequency, TF over GST control)
ELF2 = biological target: T1, ELF2 (UniProt Q15723); assay: as above; conditions: 10 mM Tris-HCl pH 7.5, 50 mM NaCl, 1 mM DTT, 4% glycerol, room temperature, 30 min; GST-TFs on glutathione beads, 16-mer random dsDNA library, 0.1% …; high values mean tight binding; double strand, one strand shown; scale: fold enrichment (6-mer frequency, TF over GST control)
T1 sequence: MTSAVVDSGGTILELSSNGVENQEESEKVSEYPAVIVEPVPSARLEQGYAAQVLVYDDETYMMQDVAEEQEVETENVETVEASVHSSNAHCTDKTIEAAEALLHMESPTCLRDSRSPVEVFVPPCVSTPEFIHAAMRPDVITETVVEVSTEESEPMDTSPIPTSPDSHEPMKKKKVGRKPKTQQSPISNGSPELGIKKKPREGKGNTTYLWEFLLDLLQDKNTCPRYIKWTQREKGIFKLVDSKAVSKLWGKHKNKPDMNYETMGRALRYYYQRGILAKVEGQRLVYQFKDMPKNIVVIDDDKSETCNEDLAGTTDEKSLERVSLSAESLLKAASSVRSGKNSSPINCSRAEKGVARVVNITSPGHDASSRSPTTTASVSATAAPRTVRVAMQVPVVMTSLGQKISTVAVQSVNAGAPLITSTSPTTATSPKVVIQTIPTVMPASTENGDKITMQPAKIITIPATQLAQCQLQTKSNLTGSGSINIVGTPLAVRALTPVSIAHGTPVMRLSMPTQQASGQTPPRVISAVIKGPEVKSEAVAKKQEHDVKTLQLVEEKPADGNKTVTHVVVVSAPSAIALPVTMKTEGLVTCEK

Row | Sequence | binding signal (HSF1) | binding signal (ELF2)
1 | GTAAAG | 0.942 | 0.87
2 | GCGGGT | 0.496 | 0.589
3 | TGAGTG | 0.407 | 0.427
4 | GAGCAC | 0.636 | 0.7
5 | CAGGCA | 0.589 | 0.721
6 | GTAGGT | 0.68 | 0.78
7 | CTCGGA | 0.894 | 0.817
8 | GGAACG | 0.684 | 0.593
9 | AAAGGA | 0.866 | 0.89
10 | GGCCGT | 0.346 | 0.378
11 | GTGCGG | 0.541 | 0.713
12 | CGGACG | 0.309 | 0.49
13 | AGACAC | 0.679 | 0.761
14 | ACGTGA | 0.261 | 0.246
15 | CCAGGG | 0.594 | 0.595
16 | TTGTGA | 0.741 | 0.737
17 | GGGGAG | 0.329 | 0.38
18 | GACAGT | 0.39 | 0.433
19 | GCGGTT | 0.669 | 0.8
20 | CGTCGT | 0.696 | 0.814
21 | GAGTTG | 0.397 | 0.497
22 | AGACTA | 1.06 | 0.751
23 | AGACAG | 0.489 | 0.495

Row | Sequence | binding signal (HSF1) | binding signal (ELF2)
24 | CAGTCC | 0.54 | 0.617
25 | AGGGAG | 0.335 | 0.361
26 | GTGAAT | 0.812 | 0.825
27 | GAGTTT | 0.627 | 0.622
28 | AGAGGC | 0.648 | 0.7
29 | TCGGGT | 0.631 | 0.56
30 | CAGGCG | 0.237 | 0.278
31 | GCATGT | 0.676 | 0.769
32 | GCGGCC | 0.661 | 0.806
33 | GTGAGC | 0.307 | 0.378
34 | CGAGGG | 0.657 | 0.615
35 | CAGCCG | 0.549 | 0.647
36 | GTGAAC | 0.676 | 0.784
37 | TAGGGA | 0.867 | 0.811
38 | GAGTCG | 0.221 | 0.215
39 | ACCATG | 0.741 | 0.791
40 | CGGTAC | 0.642 | 0.967
41 | TCGGAT | 0.698 | 0.492
42 | GCGCAT | 0.88 | 0.839
43 | GTCAAG | 0.647 | 0.767
44 | AGCAAG | 0.903 | 0.916
45 | AGATAG | 0.911 | 0.797
46 | CAACGT | 0.735 | 0.841

Row | Sequence | binding signal (HSF1) | binding signal (ELF2)
47 | GAGCAT | 0.785 | 0.731
48 | GGTGAG | 0.325 | 0.335
49 | GGGCGT | 0.401 | 0.467
50 | GAGGGA | 0.51 | 0.484
51 | GGGCAG | 0.442 | 0.56
52 | GTAAGG | 0.636 | 0.735
53 | CCTAGT | 0.916 | 0.905
54 | GTCGGA | 0.151 | 0.17
55 | GGGGGA | 0.548 | 0.538
56 | CGGAAT | 0.916 | 1.13
57 | GGGACT | 0.634 | 0.658
58 | TGCGGG | 0.729 | 0.781
59 | GTTGAG | 0.614 | 0.633
60 | GTCAGA | 0.606 | 0.636
61 | CAGTTG | 0.436 | 0.466
62 | CCGCGA | 0.727 | 0.739
63 | CAGGGG | 0.505 | 0.551
64 | ACTGTG | 0.397 | 0.453
65 | TGTGTA | 0.729 | 0.805
66 | GTCATA | 0.636 | 0.729
67 | GGCGTC | 0.605 | 0.777
68 | GTAGTG | 0.59 | 0.806
69 | GCCGGG | 0.346 | 0.364

Row | Sequence | binding signal (HSF1) | binding signal (ELF2)
70 | CGGCGT | 0.694 | 0.834
71 | AGGTTA | 0.825 | 0.769
72 | GGGCGA | 0.763 | 0.741
73 | GTCGGC | 0.321 | 0.369
74 | CAAAGG | 0.737 | 0.795
75 | AGTCAG | 0.42 | 0.507
76 | AGCTGG | 0.938 | 0.841
77 | GGGGCG | 0.46 | 0.575
78 | CGGTGC | 0.514 | 0.7
79 | TCGCCA | 0.916 | 0.915
80 | AGGTCG | 0.43 | 0.471
81 | TGAGTA | 0.436 | 0.412
82 | GGTTGC | 0.649 | 0.89
83 | AACGGG | 0.621 | 0.698
84 | ACAGGG | 0.634 | 0.75
85 | TGGAGA | 0.582 | 0.395
86 | CAAGGC | 0.715 | 0.838
87 | GGGTCT | 0.822 | 0.915
88 | GGTGCT | 0.784 | 0.871
89 | CGGGAC | 0.445 | 0.54
90 | ACACGT | 0.698 | 0.783
91 | AGAGGT | 0.745 | 0.794
92 | GGGGGC | 0.464 | 0.582

Row | Sequence | binding signal (HSF1) | binding signal (ELF2)
93 | GACGGC | 0.6 | 0.685
94 | CCGAGG | 0.679 | 0.685
95 | GAAGAC | 0.782 | 1
96 | CGAGTG | 0.836 | 0.756
97 | GAAGGC | 0.837 | 0.945
98 | GGAAAG | 1.29 | 0.975
99 | GCACGT | 0.66 | 0.754
100 | AAGAGG | 0.801 | 0.854
101 | GCGGTC | 0.521 | 0.633
102 | GCCACG | 0.785 | 0.91
103 | GGCGGG | 0.264 | 0.31
104 | ACGGTC | 0.641 | 0.722
105 | GCGCAG | 0.708 | 0.763
106 | AGTTCG | 0.844 | 0.714
107 | GGGGTC | 0.516 | 0.619
108 | TAGGAC | 0.877 | 0.839
109 | AGACGA | 0.816 | 0.672
110 | GTCTGA | 0.676 | 0.753
111 | AGGTGC | 0.585 | 0.637
112 | GGCCGG | 0.396 | 0.567
113 | GACAGG | 0.427 | 0.571
114 | CGGTGT | 0.534 | 0.737

3 successive entries already listed:
Row | Sequence | binding signal (HSF1) | binding signal (ELF2)
101 | GCGGTC | 0.521 | 0.633
102 | GCCACG | 0.785 | 0.91
103 | GGCGGG | 0.264 | 0.31
